Assay [1] concerns the target HER3/ErbB3 receptor (human (endogenous in BxPC3)) (UniProt P21860). As to the kind of experiment: co-IP; serum-starved BxPC3 cells in medium alone (basal, control); 2 mg lysate in CHAPS buffer, HER3 immunoprecipitated with anti-HER3 antibody 2F12 (C-terminal tail), 4°C, protein A/G agarose or magnetic beads; western blot for ITCH, HER3, NEDD4. (In western blotting, separated proteins are transferred to a membrane and probed.)

By UniProt entry, the sequences of proteins in these tests, tags left out. Residues count along the entry.
UniProt P21860, residues 20-1342: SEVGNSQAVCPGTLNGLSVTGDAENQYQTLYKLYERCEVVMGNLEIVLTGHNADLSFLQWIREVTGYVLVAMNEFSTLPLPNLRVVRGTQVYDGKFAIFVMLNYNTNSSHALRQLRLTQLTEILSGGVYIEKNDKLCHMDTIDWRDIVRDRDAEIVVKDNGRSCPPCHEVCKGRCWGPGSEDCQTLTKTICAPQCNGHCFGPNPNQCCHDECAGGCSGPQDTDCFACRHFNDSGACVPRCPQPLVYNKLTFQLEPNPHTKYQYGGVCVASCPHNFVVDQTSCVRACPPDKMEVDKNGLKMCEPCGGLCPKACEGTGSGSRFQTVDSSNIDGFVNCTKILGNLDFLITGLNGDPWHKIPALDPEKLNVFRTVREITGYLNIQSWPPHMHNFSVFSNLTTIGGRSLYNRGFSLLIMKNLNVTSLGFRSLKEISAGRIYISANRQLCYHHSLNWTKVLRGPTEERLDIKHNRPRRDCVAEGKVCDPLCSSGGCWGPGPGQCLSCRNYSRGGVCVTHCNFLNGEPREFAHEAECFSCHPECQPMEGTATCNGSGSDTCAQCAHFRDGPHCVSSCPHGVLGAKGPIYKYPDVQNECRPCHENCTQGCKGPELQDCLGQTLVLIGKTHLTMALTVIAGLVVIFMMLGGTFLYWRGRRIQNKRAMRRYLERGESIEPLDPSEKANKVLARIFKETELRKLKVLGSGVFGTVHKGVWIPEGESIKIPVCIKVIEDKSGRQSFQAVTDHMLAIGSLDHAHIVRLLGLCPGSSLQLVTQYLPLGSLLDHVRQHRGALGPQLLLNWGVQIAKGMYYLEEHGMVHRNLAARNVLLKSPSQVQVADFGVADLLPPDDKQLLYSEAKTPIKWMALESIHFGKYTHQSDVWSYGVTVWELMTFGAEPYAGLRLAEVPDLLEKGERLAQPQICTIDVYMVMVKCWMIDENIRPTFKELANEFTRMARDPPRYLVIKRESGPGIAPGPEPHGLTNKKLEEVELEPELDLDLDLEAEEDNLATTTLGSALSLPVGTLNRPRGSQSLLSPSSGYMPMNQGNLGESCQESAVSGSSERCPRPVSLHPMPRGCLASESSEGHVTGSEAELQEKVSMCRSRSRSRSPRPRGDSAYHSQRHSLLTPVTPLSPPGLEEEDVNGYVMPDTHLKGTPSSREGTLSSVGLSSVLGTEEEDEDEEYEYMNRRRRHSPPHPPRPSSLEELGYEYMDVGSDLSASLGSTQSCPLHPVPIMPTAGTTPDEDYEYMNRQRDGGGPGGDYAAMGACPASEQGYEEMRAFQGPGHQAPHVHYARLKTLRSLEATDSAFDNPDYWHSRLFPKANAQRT
UniProt P46934: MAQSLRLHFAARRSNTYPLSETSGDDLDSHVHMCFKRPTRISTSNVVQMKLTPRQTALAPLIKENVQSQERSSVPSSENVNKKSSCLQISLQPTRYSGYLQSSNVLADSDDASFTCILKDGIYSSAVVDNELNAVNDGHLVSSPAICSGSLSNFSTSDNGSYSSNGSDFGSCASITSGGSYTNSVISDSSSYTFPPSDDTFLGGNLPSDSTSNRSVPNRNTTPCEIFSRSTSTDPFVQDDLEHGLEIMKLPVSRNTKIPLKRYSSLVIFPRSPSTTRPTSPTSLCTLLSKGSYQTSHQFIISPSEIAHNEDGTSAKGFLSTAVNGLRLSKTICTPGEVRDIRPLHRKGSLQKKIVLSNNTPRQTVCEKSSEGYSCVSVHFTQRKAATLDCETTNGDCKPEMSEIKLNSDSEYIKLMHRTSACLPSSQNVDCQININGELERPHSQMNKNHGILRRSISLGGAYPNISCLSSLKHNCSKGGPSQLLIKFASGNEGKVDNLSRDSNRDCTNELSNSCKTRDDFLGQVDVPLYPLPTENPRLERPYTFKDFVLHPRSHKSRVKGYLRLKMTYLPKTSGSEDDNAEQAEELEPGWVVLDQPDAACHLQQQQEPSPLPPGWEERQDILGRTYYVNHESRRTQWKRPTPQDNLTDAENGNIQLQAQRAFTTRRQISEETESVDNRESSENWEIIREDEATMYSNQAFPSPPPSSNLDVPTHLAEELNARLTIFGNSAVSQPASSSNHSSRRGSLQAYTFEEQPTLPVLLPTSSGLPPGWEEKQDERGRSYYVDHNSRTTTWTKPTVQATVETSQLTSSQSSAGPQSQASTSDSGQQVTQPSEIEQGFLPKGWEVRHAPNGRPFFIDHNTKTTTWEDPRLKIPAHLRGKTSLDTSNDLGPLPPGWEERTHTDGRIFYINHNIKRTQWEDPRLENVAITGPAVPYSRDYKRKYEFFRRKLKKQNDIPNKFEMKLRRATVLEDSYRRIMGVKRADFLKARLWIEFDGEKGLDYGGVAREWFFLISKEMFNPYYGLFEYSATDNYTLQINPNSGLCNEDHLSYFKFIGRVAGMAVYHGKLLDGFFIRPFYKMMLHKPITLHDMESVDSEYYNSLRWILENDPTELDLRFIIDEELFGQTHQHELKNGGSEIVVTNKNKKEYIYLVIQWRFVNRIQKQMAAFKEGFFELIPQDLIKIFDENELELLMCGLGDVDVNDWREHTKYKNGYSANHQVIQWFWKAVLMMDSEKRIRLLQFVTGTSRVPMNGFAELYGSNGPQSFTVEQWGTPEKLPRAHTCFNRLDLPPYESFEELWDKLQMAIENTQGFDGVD

For assay [2] the target is unchanged. Put plainly: condition: only after incubation of the cells with 9F7-F11 or with NRG-1β; co-IP; serum-starved BxPC3 cells incubated with 50 μg/mL 9F7-F11 for 30 min or 100 ng/mL NRG-1β for 30 min or 1 hr; 2 mg lysate in CHAPS buffer, HER3 immunoprecipitated with anti-HER3 antibody 2F12 (C-terminal tail), 4°C; western blot for ITCH, HER3, NEDD4.

These are yes or no findings as the source states them, for the method shown. Binding seen in cells or lysates may run through a third protein. Some entries that bind do so weakly or less than the wild type.

Take “neural precursor cell expressed, developmentally downregulated 4 (NEDD4) (from UniProt P46934 1-1319) (enzyme)”: the values for the binding result in assay [1] and in assay [2] were “binds” and “no binding”, respectively.

The values are drawn from PMC5095055.
